Consider twelve compounds from PubChem BioAssay AID196 (DTP/NCI, 2004).

The assay deals with BDF1 mice, intracerebral B16 melanoma, median survival T/C. The experiment in a line: NCI In Vivo Anticancer Drug Screen. Data for tumor model B16 Melanoma (intracerebral) in B6D2F1 (BDF1) mice. Particulars: T/C endpoint: median survival time, higher T/C = longer survival. As to the method: The antitumor activity of compounds was measured in mice bearing transplantable tumors. Survival or tumor size were measured and the results are expressed as the measurement made in the treated group (T) divided by the measurement made in the vehicle treated control group (C). The tumor model used in this assay is B16 Melanoma (intracerebral) in B6D2F1 (BDF1) mice

Where [1] appears, read: dose: 50.0 mg/kg/injection, schedule: Q01DX009 (ip), vehicle: saline with Tween-80.
The mark [2] stands for this setting: dose: 4.0 mg/kg/injection, schedule: Q01DX009 (ip), vehicle: water.

The list does not hold the whole screen: it gathers tests that were run many times, whatever their T/C, doses with no T/C, and many T/C values between a quarter and a half above the control. Further doses and runs are listed elsewhere. T/C gives the treated animals as a percentage of the vehicle group. Some entries give survivors of the animals treated and no T/C: the source holds a T/C of zero for them, seemingly a mark for toxic or unscored doses. Some doses without a T/C left all or most animals alive at the check, yet need not have been tolerated: the source hardly ever lists a survival T/C far under the control, and the zero likely stands for such cases as well. Survivors were counted at the toxicity check, usually on the fifth day, unless a day is given; later deaths do not show. Schedule codes are those of the source, taken here to give the interval after Q, in days (D) or hours (H), and the number of doses after X. Some molecules as drawn cover several salts, stereoisomers or complexes of the source; a dose is that of the sample tested. For survival time, the PubChem record calls one and a half times the control and up active, and a quarter to a half above the control has no call in these data; cut-offs in other NCI protocols can differ. Some T/C values carry the count of animals alive at the toxicity check (mostly the fifth day); without a count, all were alive then.

Turning to `COc1ccc2c(c1OC(C)=O)-c1cc(O)cc3c1C(C2)N(C(=O)CN(CCCl)CCCl)CC3` (configuration not stated), the survivor count reads like this: (dose: 25.0 mg/kg/injection, schedule: Q01DX009 (ip), vehicle: saline with Tween-80) 10 of 10; (dose: 32.0 mg/kg/injection, schedule: Q01DX005 (ip), vehicle: DMSO) 8 of 10; under setting [1], 7 of 10; (dose: 64.0 mg/kg/injection, schedule: Q01DX005 (ip), vehicle: DMSO) 7 of 10; (dose: 128.0 mg/kg/injection, schedule: Q01DX005 (ip), vehicle: DMSO) 3 of 10.

As to `COc1cccc2c1C(=O)c1c(O)c3c(c(O)c1C2=O)C[C@@](O)(C(C)=O)C[C@@H]3OC1CC(N)C(O)C(C)O1` (some centres not stated), the survivor count runs as follows: (dose: 2.0 mg/kg/injection, schedule: Q01DX009 (ip), vehicle: saline) 10 of 10; (dose: 2.0 mg/kg/injection, schedule: Q03HX008 (ip), vehicle: saline) 9 of 10; (dose: 4.0 mg/kg/injection, schedule: Q01DX009 (ip), vehicle: saline) 10 of 10; under setting [2], 10 of 10.

For `CN(C)CC(=O)c1ccc(O)c(O)c1`, the T/C (dose: 100.0 mg/kg/injection, schedule: Q01DX005 (ip), vehicle: saline) is 125 % of control. Moreover, the survivor count (dose: 400.0 mg/kg/injection, schedule: Q01DX005 (ip), vehicle: saline) was 10 of 10.

With `CN=S(=O)(OCCCCCOS(=O)(=NC)c1ccccc1)c1ccccc1` (configuration not stated), the survivor count under setting [1] is reported as 10 of 10 and the survivor count (dose: 100.0 mg/kg/injection, schedule: Q01DX009 (ip), vehicle: saline with Tween-80) is 0 of 10.

`O=C1C(NCCO)=C(N2CC2)C(=O)C(NCCO)=C1N1CC1`: the survivor count is 10 of 10 (dose: 1.5 mg/kg/injection, schedule: Q01DX009 (ip), vehicle: saline) and 10 of 10 (dose: 3.0 mg/kg/injection, schedule: Q01DX009 (ip), vehicle: saline).

For the compound `NC(Cc1ccc(N(CCCl)CCCl)cc1)C(=O)O` (configuration not stated), the T/C under setting [2] is 133 % of control and the T/C (dose: 8.0 mg/kg/injection, schedule: Q01DX009 (ip), vehicle: water) is 129 % of control. For the same compound, the survivor count (dose: 16.0 mg/kg/injection, schedule: Q01DX009 (ip), vehicle: water) is on record as 10 of 10.

`O=NN(CCF)C(=O)NC1C(O)CCCC1O` (configuration not stated): the T/C is 137 % of control (dose: 26.7 mg/kg/injection, schedule: Q01DX001 (ip), vehicle: Klucel (hydroxypropylcellulose) (HPC)) and 143 % of control [8 of 10 alive on day 6] (dose: 36.0 mg/kg/injection, schedule: Q01DX001 (ip), vehicle: saline). Moreover, the survivor count reads like this: (dose: 90.0 mg/kg/injection, schedule: Q01DX001 (ip), vehicle: Klucel (hydroxypropylcellulose) (HPC)) 3 of 10 on day 6; (dose: 100.0 mg/kg/injection, schedule: Q01DX001 (ip), vehicle: saline) 4 of 10 on day 6.

Turning to `CCCCCCC(=O)O[C@H]1CC[C@H]2[C@@H]3CCC4=CC(=O)CC[C@]4(C)[C@H]3CC[C@]12C`, the survivor count (dose: 256.0 mg/kg/injection, schedule: Q01DX009 (ip), vehicle: Klucel (hydroxypropylcellulose) (HPC)) is reported as 4 of 6.

In the case of `Cc1c(N)nc([C@H](CC(N)=O)NC[C@H](N)C(N)=O)nc1C(=O)N[C@H](C(=O)N[C@H](C)[C@@H](O)[C@H](C)C(=O)N[C@H](C(=O)NCCc1nc(-c2nc(C(=O)NCCC[S+](C)C)cs2)cs1)[C@@H](C)O)C(OC1OC(CO)C(O)C(O)C1OC1OC(CO)C(O)C(OC(N)=O)C1O)c1cnc[nH]1` (some centres not stated), under “dose: 32.0 mg/kg/injection, schedule: Q01DX009 (ip), vehicle: saline”, the survivor count is 8 of 10.

For `CC1CCC(NC(=O)N(CCCl)N=O)CC1` (configuration not stated), the survivor count runs as follows: (dose: 8.0 mg/kg/injection, schedule: Q01DX009 (ip), vehicle: Klucel (hydroxypropylcellulose) (HPC)) 10 of 10; (dose: 16.0 mg/kg/injection, schedule: Q01DX009 (ip), vehicle: Klucel (hydroxypropylcellulose) (HPC)) 9 of 10; (dose: 18.0 mg/kg/injection, schedule: Q01DX001 (ip), vehicle: other) 10 of 10. For the same compound, the T/C (dose: 30.0 mg/kg/injection, schedule: Q01DX001 (ip), vehicle: other) is 137 % of control.

Regarding `Cc1c2ccncc2c(C)c2c1[nH]c1ccccc12`, the survivor count by setting is: (dose: 20.0 mg/kg/injection, schedule: Q01DX009 (ip), vehicle: saline) 9 of 10; (dose: 40.0 mg/kg/injection, schedule: Q01DX009 (ip), vehicle: saline) 10 of 10; (dose: 80.0 mg/kg/injection, schedule: Q01DX009 (ip), vehicle: saline) 2 of 10.

On to `CN(N=O)C(=O)N[C@@H](C=O)[C@@H](O)[C@H](O)[C@H](O)CO`, for which the survivor count reads like this: (dose: 0.19 mg/kg/injection, schedule: Q01DX009 (ip), vehicle: citric acid) 0 of 10; (dose: 0.39 mg/kg/injection, schedule: Q01DX009 (ip), vehicle: citric acid) 0 of 10; (dose: 0.78 mg/kg/injection, schedule: Q01DX009 (ip), vehicle: citric acid) 0 of 10; (dose: 1.0 mg/kg/injection, schedule: Q01DX009 (ip), vehicle: citric acid) 0 of 10; (dose: 1.56 mg/kg/injection, schedule: Q01DX009 (ip), vehicle: citric acid) 0 of 10; (dose: 2.0 mg/kg/injection, schedule: Q01DX009 (ip), vehicle: citric acid) 0 of 10. In addition, the survivor count is listed as 0 of 10 (dose: 3.12 mg/kg/injection, schedule: Q01DX009 (ip), vehicle: citric acid); 0 of 10 (dose: 4.0 mg/kg/injection, schedule: Q01DX009 (ip), vehicle: citric acid); 0 of 10 (dose: 6.25 mg/kg/injection, schedule: Q01DX009 (ip), vehicle: citric acid); 0 of 10 (dose: 8.0 mg/kg/injection, schedule: Q01DX009 (ip), vehicle: citric acid); 0 of 10 (dose: 12.5 mg/kg/injection, schedule: Q01DX009 (ip), vehicle: citric acid); 0 of 10 (dose: 25.0 mg/kg/injection, schedule: Q01DX009 (ip), vehicle: citric acid). The survivor count is, setting by setting: (dose: 50.0 mg/kg/injection, schedule: Q01DX009 (ip), vehicle: citric acid) 0 of 10; (dose: 100.0 mg/kg/injection, schedule: Q01DX009 (ip), vehicle: citric acid) 0 of 10; (dose: 200.0 mg/kg/injection, schedule: Q01DX009 (ip), vehicle: citric acid) 0 of 10; (dose: 0.25 micrograms/kg/injection, schedule: Q01DX009 (ip), vehicle: citric acid) 9 of 10; (dose: 0.5 micrograms/kg/injection, schedule: Q01DX009 (ip), vehicle: citric acid) 0 of 10; (dose: 1.0 micrograms/kg/injection, schedule: Q01DX009 (ip), vehicle: citric acid) 0 of 10. Further, the survivor count runs as follows: (dose: 2.0 micrograms/kg/injection, schedule: Q01DX009 (ip), vehicle: citric acid) 0 of 10; (dose: 5.0 micrograms/kg/injection, schedule: Q01DX009 (ip), vehicle: citric acid) 0 of 10; (dose: 10.0 micrograms/kg/injection, schedule: Q01DX009 (ip), vehicle: citric acid) 0 of 10.
